The text below walks through data of PubChem BioAssay AID1487 (National Center for Advancing Translational Sciences (NCATS), 2009).

This is one part of the list. These are further read-outs of the screen, such as a control signal, another cell line or another target. No call is given for them. Compounds called inactive in the main read-out are mostly missing here. Words in brackets tell the shape of the fitted curve; partial curves, single points and poor fits give uncertain potencies.

The nature of this assay: qHTS Assay for Modulators of Lamin A Splicing. As to conditions: HeLa LMNA splicing GFP/RFP minigene ratio, 48 h. A digest of the protocol:
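S3 HeLa stable clones carrying a lamin A-EGFP splicing minigene plus DsRed2 were seeded at 600 cells/well in Opti-MEM with 2% FBS, pin-dosed and incubated 48 h at 37°C. Acumen cytometry (488 nm) gave the GFP/RFP total-intensity ratio.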
A general note: Quantitative high-throughput screening tests each substance at several concentrations.

Where [1] appears, read: measured here: RFP viability control channel.
Setting [2] is: measured here: GFP splicing reporter channel.

As usually defined, the AC50 is the concentration giving half of the maximal activity seen.

As for `O=C(Nc1cccc(Cl)c1)c1ccc(Cn2cc(Cl)cn2)cc1`, the AC50 under setting [1] is 20 µM [rising, single point].

Take `COc1ccc(CN(C(=O)Cc2c[nH]c3ccccc23)C(C(=O)NC2CCCCC2)c2ccc(C)o2)cc1` (stereo not given): the AC50 under setting [1] is 12.6 µM [rising, partial curve]. For `CC(C)NC(=S)Nc1cccc2cnccc12`, the AC50 under setting [2] was 7.94 µM [rising, partial curve] and the AC50 under setting [1] is 10 µM [rising, partial curve, poor fit]. Turning to `CCOC(=O)c1sc(NC(=O)c2cc3nc(-c4ccc(Br)cc4)cc(C(F)(F)F)n3n2)c(C(=O)OCC)c1C`, under setting [1], the AC50 is 2.24 µM [falling, partial curve]. Turning to `Cc1ccc(C(C(=O)Nc2ccc3c(c2)OCO3)N(C)C(=O)/C=C\c2ccc3c(c2)OCO3)cc1` (stereo not given), the AC50 runs as follows: under setting [2], 10 µM [rising, partial curve]; under setting [1], 11.2 µM [rising, partial curve]. Turning to `Cn1nc(CC(=O)Nc2ccc3c(c2)CCC3)c2ccccc2c1=O`, the AC50 under setting [1] was 0.631 µM [rising, full curve]. Regarding `c1ccc2c(-n3ccnc3)nc(-c3ccoc3)nc2c1`, the AC50 is 3.98 µM [falling, full curve] under setting [2] and 4.47 µM [falling, full curve] under setting [1].

As for `Cn1c(-n2c(-c3ccco3)nc3ccccc3c2=O)nc2ccccc21`, the AC50 under setting [1] was 17.8 µM [rising, single point]. In the case of `Cc1nc2ccc(S(=O)(=O)NCC(=O)N3CCCC(C)C3)cc2s1` (stereo not given), the AC50 by setting is: under setting [2], 10 µM [rising, partial curve, poor fit]; under setting [1], 12.6 µM [rising, single point].

Consider `CCCCn1c(NC(C)=O)c(C#N)c2nc3ccccc3nc21`, for which the AC50 under setting [2] is 3.55 µM [rising, partial curve, poor fit]. For the compound `CCOC(=O)c1nn(-c2ccc(F)cc2)cc1O`, the AC50 under setting [1] was 0.00501 µM [falling, full curve, poor fit].

As for `CCN1C(=O)S/C(=C/c2c(OCc3ccc(C(=O)O)cc3)ccc3ccccc23)C1=O`, the AC50 under setting [1] was 14.1 µM [rising, single point]. Consider `CC1(C)S[C@@H]2[C@H](NC(=O)[C@@H](NC(=O)N3CCNC3=O)c3ccccc3)C(=O)N2[C@H]1C(=O)O`, for which the AC50 is, setting by setting: under setting [2], 0.000355 µM [rising, full curve, poor fit]; under setting [1], 0.0631 µM [rising, full curve, poor fit]. For `CCNC(=O)/C(=C\C=C\c1ccccc1)NC(=O)c1ccc(Br)o1`, the AC50 by setting is: under setting [2], 35.5 µM [rising, single point]; under setting [1], 35.5 µM [rising, single point].

For the compound `Cc1ccc(-c2cc(C(=O)OC3CCOC3=O)c3ccccc3n2)c(C)c1` (stereo not given), the AC50 under setting [1] was 1.26 µM [falling, full curve, poor fit]. Same read-out and setting: with `CCN1CCN(CCNC(=O)c2ccc(/C=C3/Sc4ccccc4N(Cc4cccc(Cl)c4)C3=O)cc2)CC1` the figure was 35.5 µM [falling, single point]; with `N#Cc1nc(-c2ccco2)oc1N1CCN(c2cccc(Cl)c2)CC1`, 14.1 µM [rising, single point]; with `Cn1nnnc1Sc1c(Cl)cccc1[N+](=O)[O-]`, 12.6 µM [rising, partial curve].

As to `Cc1cccc(CNc2nc(-c3ccoc3)nc3ccccc23)c1`, the AC50 runs as follows: under setting [2], 12.6 µM [rising, single point]; under setting [1], 31.6 µM [rising, single point]. As for `CCOc1ccc(-n2nnc3c(=O)n(CC(=O)N4CCCc5ccccc54)cnc32)cc1`, the AC50 under setting [1] is 12.6 µM [rising, single point]. With `COc1cccc2[nH]c3c(N4CCC(C)CC4)ncnc3c12`, the AC50 under setting [2] was 3.55 µM [rising, partial curve, poor fit] and the AC50 under setting [1] is 12.6 µM [rising, single point]. Regarding `CC1=CCC2C(=O)N(c3ccccc3OC(=O)c3ccccc3F)C(=O)C2C1` (stereo not given), the AC50 under setting [2] was 6.31 µM [rising, full curve, poor fit] and the AC50 under setting [1] is 0.562 µM [rising, full curve, poor fit]. For the compound `CCn1c(SCC(=O)Nc2cc(F)ccc2C)nnc1-c1ccccc1O`, under setting [1], the AC50 is 35.5 µM [rising, single point]. Take `C[n+]1ccccc1/C=N\O`: the AC50 under setting [2] was 0.398 µM [falling, full curve, poor fit].

In the case of `CC(Oc1ccc(Cl)cc1Cl)c1nc(-c2ccc(NC(=O)c3ccncc3)cc2)no1` (stereo not given), the concentration at half-maximal activity (AC50) is, setting by setting: under setting [2], 4.47 µM [rising, single point]; under setting [1], 31.6 µM [rising, partial curve].

Take `COc1ccccc1CNC(=O)c1oc2c(c1C)-c1nn(Cc3ccc(Cl)cc3)cc1CC2`: under setting [1], the AC50 was 31.6 µM [rising, single point]. On to `CCc1cccc(NC(=O)c2ccc(NS(=O)(=O)c3c(C)noc3C)cc2)c1`, for which the AC50 under setting [2] was 35.5 µM [rising, single point] and the AC50 under setting [1] was 31.6 µM [rising, single point].

For the compound `CC(C)N(Cc1nc(COc2ccccc2)no1)Cc1nccn1C`, the AC50 under setting [2] was 0.0224 µM [rising, full curve, poor fit] and the AC50 under setting [1] was 0.0224 µM [rising, full curve, poor fit]. For the compound `Cc1ccc(SCCC(=O)N/N=C/c2cccnc2)cc1`, the AC50 under setting [1] was 1.12 µM [falling, full curve, poor fit].

With `Cc1c(C(=O)Nc2ccncc2)oc2ccccc12`, the AC50 under setting [1] is 14.1 µM [rising, partial curve, poor fit]. Turning to `O=C(CCl)Nc1ccc(Oc2cnc3ccccc3n2)cc1`, under setting [1], the concentration at half-maximal activity (AC50) was 22.4 µM [falling, single point].

Take `Cc1ccccc1N1CCN(Cc2c(C#N)c3ccccc3n2C)CC1`: the AC50 under setting [1] is 35.5 µM [rising, single point]. As for `COc1ccc(O[C@H]2C=C[C@@H](c3ccccc3)O[C@@H]2COC(=O)CC/C(C)=N/OC[C@@H](O)COCc2ccco2)cc1`, under setting [1], the half-maximal activity concentration (AC50) was 31.6 µM [rising, single point].

As to `O=C(NCC1CCCO1)C(c1ccc(F)cc1)N(CCCN1CCOCC1)C(=O)c1ccc(-c2ccccc2)[nH]1` (stereo not given), the AC50 by setting is: under setting [2], 35.5 µM [falling, partial curve]; under setting [1], 35.5 µM [falling, partial curve, poor fit]. Take `O=c1c2cc3c(nc2ncn1Cc1ccccc1F)CCCC3`: the AC50 is 3.16 µM [falling, partial curve, poor fit] under setting [2] and 15.8 µM [rising, single point] under setting [1].

Consider `Cc1[nH]c2ccccc2c1/C=C/c1nc2ccccc2c(=O)n1CCO`, for which the AC50 under setting [1] is 35.5 µM [falling, single point].

Consider `Cc1ccc(S(=O)(=O)NNC(=O)C(=O)NNS(=O)(=O)c2ccc(C)cc2)cc1`, for which the AC50 is, setting by setting: under setting [2], 0.158 µM [falling, full curve, poor fit]; under setting [1], 0.178 µM [falling, full curve, poor fit]. `Cc1cc(C)c2nc(/N=C(\N)NC(=O)Nc3ccccc3)nc(C)c2c1`: the AC50 under setting [1] was 15.8 µM [rising, partial curve]. Take `Cc1ccc(NC(=O)Nc2nnc(SCC(=O)N3CCC(C)CC3)s2)cc1`: the AC50 under setting [1] is 31.6 µM [rising, single point]. For `COc1ccc(C)cc1-n1c(SCC(=O)Nc2cc(C)on2)nc2ccccc2c1=O`, the AC50 by setting is: under setting [2], 1 µM [falling, full curve, poor fit]; under setting [1], 1.26 µM [falling, partial curve].

Take `O=C(CCCc1ccccc1)c1ccc2c(c1)OCCO2`: under setting [1], the AC50 was 14.1 µM [rising, partial curve, poor fit]. Consider `CC(C)CCNC(=S)Nc1ccc([N+](=O)[O-])cc1`, for which the AC50 reads like this: under setting [2], 0.126 µM [rising, full curve]; under setting [1], 11.2 µM [rising, partial curve]. As to `O=C(Nc1ccc(F)c(F)c1)c1ccc(F)c(S(=O)(=O)N2CCOCC2)c1`, the AC50 under setting [2] was 4.47 µM [rising, single point] and the AC50 under setting [1] is 7.94 µM [rising, partial curve]. As to `COc1ccc2nc(Nc3nc(-c4ccncc4)cs3)sc2c1`, the AC50 under setting [2] was 35.5 µM [falling, single point]. With `CSc1nc(Cl)c(Cc2ccc(OC(C)C)cc2)c(N(C)C)n1`, the AC50 under setting [1] is 11.2 µM [rising, single point]. Same read-out and setting: the same measure for `O=C(Nc1nc2c(s1)CCCC2)c1cc(-c2ccccc2)nc2ccccc12`: 20 µM [rising, single point]. On to `Cc1ccccc1NC(=O)CN1C(=O)N/C(=C\c2ccc(N3CCOCC3)c(F)c2)C1=O`, for which the AC50 is 7.94 µM [falling, partial curve] under setting [2] and 5.62 µM [falling, partial curve, poor fit] under setting [1]. For `COc1ccc(C(=O)NCCn2cc(SCC(=O)NCc3ccco3)c3ccccc32)cc1`, the AC50 under setting [1] is 31.6 µM [rising, single point]. Same read-out and setting: with `O=C(Nc1ccc(NC(=O)c2ccco2)nc1)c1ccccn1` the figure was 3.16 µM [rising, single point]; with `CCC(=O)N(Cc1cc2cc(OC)ccc2[nH]c1=O)c1cccc(C)c1`, 4.47 µM [rising, partial curve]; with `CCOC(=O)c1c(C)[nH]c2cc(Br)c(OC)cc12`, 17.8 µM [rising, single point]. As to `Cc1cc(C(=O)COC(=O)c2n[nH]c3ccccc23)c(C)n1CC1CCCO1` (stereo not given), the AC50 is, setting by setting: under setting [2], 20 µM [rising, single point]; under setting [1], 20 µM [rising, single point]. As to `O=C1C=C(c2ccccc2)C[C@H](c2cccs2)[C@H]1n1nnc([N+](=O)[O-])n1`, the AC50 under setting [2] is 15.8 µM [falling, single point]. Consider `Cc1ccc(CNC(=O)C2(c3cccs3)CCOCC2)cc1`, for which the AC50 under setting [1] was 0.0158 µM [falling, full curve, poor fit].

Consider `CC1(C)CC[C@]2(C(=O)O)C(O)C[C@@]3(C)C(=CCC4[C@@]5(C)CCC(O)C(C)(C)C5CC[C@@]43C)C2C1` (stereo not given in full), for which, under setting [2], the AC50 was 25.1 µM [rising, single point].
